Assay results published in US20250228938A1, “THE COMBINATION OF MACROPHAGE-DIRECTED IMMUNOTHERAPY AND TARGETED AGENTS FOR TREATMENT OF CANCER” (Whitehead Institute for Biomedical Research, priority 2022, published 2025).
For at least one compound, name, drawing or mass did not settle the structure.

Test system: NCI-H358 cells
Test: Long-term co-culture assay with primary human macrophages, GFP+ NCI-H358 cells
Format: cell-based
Details: inhibitor 1 uM or anti-CD47 10 ug/mL

C=CC(=O)N1CCN(c2nc(=O)n(-c3c(C)ccnc3C(C)C)c3nc(-c4c(O)cccc4F)c(F)cc23)[C@@H](C)C1 [sotorasib]
growth of NCI-H358 cells, single agent: inhibited cancer cell growth over time, but generally had only moderate effects as single agents
